The series can be described thus: Hemodynamic and metabolic effects of molar sodium lactate infusion in critically ill patients (P-135). It is filed as in vivo, human. How it is done: Patients and methods: This was a retrospective study performed in a large University Hospital. All patients receiving the molecule were included in the analysis. Indication for sodium lactate, dose, and modality of administration were collected. We also collected clinical and biological variables before sodium lactate infusion, after 6 h (H6), and after 24 h (H24). An analysis of the evolution of these variables at H6 and H24 was performed.

Turning to `CC(O)C(=O)[O-].[Na+]` (stereo not shown) [sodium lactate], the plasma lactate concentration result (at H6, p < 0.0001) is reported as “increased”. The plasma lactate concentration entry (at H24, p = 0.99) is on record as “not different from basal value”. Where the note is “human, in vivo”, the chloride sodium ratio entry is on record as “significantly reduced” and the plasma chloride result is “no significant variation”.

Source of the values: PMC5799093, “Proceedings of Réanimation 2018, the French Intensive Care Society International Congress” (Annals of Intensive Care, 2018).
